Publication doi:10.1101/481507

Chains of the proteins cited; added tags and fusions are not shown.
UniProt P29352: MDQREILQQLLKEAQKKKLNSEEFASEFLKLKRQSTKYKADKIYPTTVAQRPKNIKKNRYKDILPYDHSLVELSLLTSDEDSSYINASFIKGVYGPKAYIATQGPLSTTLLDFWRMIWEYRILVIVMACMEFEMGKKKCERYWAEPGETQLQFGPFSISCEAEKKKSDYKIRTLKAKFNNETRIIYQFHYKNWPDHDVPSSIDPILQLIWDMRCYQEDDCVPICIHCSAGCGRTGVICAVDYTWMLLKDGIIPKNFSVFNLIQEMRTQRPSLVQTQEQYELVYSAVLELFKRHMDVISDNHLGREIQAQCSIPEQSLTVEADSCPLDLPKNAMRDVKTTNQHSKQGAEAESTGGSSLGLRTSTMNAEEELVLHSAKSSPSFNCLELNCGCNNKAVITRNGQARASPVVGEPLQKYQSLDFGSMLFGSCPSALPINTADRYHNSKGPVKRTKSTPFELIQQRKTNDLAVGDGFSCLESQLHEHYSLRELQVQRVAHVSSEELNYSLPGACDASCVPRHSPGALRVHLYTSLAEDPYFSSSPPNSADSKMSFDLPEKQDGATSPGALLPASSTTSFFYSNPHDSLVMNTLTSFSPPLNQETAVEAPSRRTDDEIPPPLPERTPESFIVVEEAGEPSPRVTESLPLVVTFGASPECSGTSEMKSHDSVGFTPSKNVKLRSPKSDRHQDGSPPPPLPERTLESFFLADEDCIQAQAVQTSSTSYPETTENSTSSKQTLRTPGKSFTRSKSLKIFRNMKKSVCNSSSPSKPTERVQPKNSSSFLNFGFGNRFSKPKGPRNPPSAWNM
UniProt Q15691: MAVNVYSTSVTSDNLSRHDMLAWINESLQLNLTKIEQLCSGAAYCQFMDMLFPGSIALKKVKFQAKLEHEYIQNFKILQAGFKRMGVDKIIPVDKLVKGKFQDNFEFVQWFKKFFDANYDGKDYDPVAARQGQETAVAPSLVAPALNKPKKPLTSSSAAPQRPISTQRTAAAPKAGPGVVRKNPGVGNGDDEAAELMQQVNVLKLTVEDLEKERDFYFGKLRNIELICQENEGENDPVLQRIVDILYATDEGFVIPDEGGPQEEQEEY
UniProt Q61166: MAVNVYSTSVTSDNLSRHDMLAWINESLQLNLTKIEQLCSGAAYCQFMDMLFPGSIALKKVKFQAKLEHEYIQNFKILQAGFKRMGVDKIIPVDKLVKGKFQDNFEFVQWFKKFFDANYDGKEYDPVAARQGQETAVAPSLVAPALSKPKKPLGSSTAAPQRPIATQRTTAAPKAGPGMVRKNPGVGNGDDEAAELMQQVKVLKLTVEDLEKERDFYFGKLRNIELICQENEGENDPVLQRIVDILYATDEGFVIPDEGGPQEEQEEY

Columns and labels:
PTPN22-Flag WT = PTPN22-Flag WT (UniProt P29352); assay: affinity purification with mass spectrometry
[1] = target: endogenous PTPN22 (mouse cells) (mouse (endogenous in BI-141 and RAW 264.7)) (UniProt P29352); assay: affinity purification with mass spectrometry

binding (PTPN22-Flag WT) | binding [1] | Substance
binds |  | endogenous EB1 (human cells) (from UniProt Q15691 1-268)
 | binds | endogenous EB1 (mouse cells) (from UniProt Q61166 1-268)

These are yes or no findings as the source states them, for the method shown. In cells and extracts the contact can be indirect. A yes stands for co-enrichment or nearness to the bait. Other partners may have been found.
